Measured data: PubChem BioAssay AID686938 (Drosophila RNAi Screening Center, 2013)
Assay: 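Looking for CRAC channel components and the factors controlling them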 (primary screen). System: Drosophila S2R+ cells. Knock-down reagent: long dsRNA against Drosophila genes, about 0.25 µg dsRNA per well, roughly 10,000 cells. Duration: 5 days of knock-down before the calcium assay. Treatment: thapsigargin (SERCA pump blocker) to empty calcium stores; entry signal taken 4 min after adding it. Read-out: 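Duplicate raw fluo-4 intensities per well from a plate reader, at rest and four minutes after thapsigargin emptied calcium stores; entry-to-rest ratio filled for only some wells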. Direction: calcium entry signal: higher = stronger calcium signal after store depletion; entry to resting ratio: higher = more calcium entry relative to resting level; resting calcium signal: higher = higher resting calcium signal. Call rule: 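Called when the plate z-score of the entry-to-rest ratio, mean of duplicates, falls below −3; wells with low overall dye signal (Fmax z below −2) or more than five off-targets excluded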. Calls: active = strongly reduced calcium entry; inactive = no strong reduction.
The deposit covers about 23,000 reagents; shown is a random part of those with a known target gene and a result. Of all reagents, 75 (0.33%) got an active call. 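Raw plate signals without normalisation; calls rest on plate z-scores that were not deposited; ratio present for only 364 wells.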 A number with no mark means an inactive call. Reagents against one gene are numbered here. Names joined by + are all predicted targets of the reagent. Not stated in the record: the dose of the treatment.

Knock-down of Hmt-1 (GeneID 41925) gave: calcium entry signal, replicate 1 (fluorescence units) = 2.43e7; calcium entry signal, replicate 2 (fluorescence units) = 2.30e7; resting calcium signal, replicate 1 (fluorescence units) = 1.16e7; resting calcium signal, replicate 2 (fluorescence units) = 1.08e7.
With knock-down of PlexB (GeneID 43766) the results were calcium entry signal, replicate 1 (fluorescence units) = 5.07e7; calcium entry signal, replicate 2 (fluorescence units) = 5.00e7; entry to resting ratio 2; resting calcium signal, replicate 1 (fluorescence units) = 2.59e7; resting calcium signal, replicate 2 (fluorescence units) = 1.97e7.
Cht12 (GeneID 246535) showed calcium entry signal, replicate 1 (fluorescence units) = 3.35e7; calcium entry signal, replicate 2 (fluorescence units) = 6.96e7; resting calcium signal, replicate 1 (fluorescence units) = 1.53e7; resting calcium signal, replicate 2 (fluorescence units) = 2.93e7.
SMC6 (GeneID 42876) gave calcium entry signal, replicate 1 (fluorescence units) = 4.49e7; calcium entry signal, replicate 2 (fluorescence units) = 4.50e7; resting calcium signal, replicate 1 (fluorescence units) = 2.32e7; resting calcium signal, replicate 2 (fluorescence units) = 1.97e7.
After knock-down of Dysb (GeneID 40052), the screen gave calcium entry signal, replicate 1 (fluorescence units) = 2.49e7; calcium entry signal, replicate 2 (fluorescence units) = 4.73e7; resting calcium signal, replicate 1 (fluorescence units) = 1.44e7; resting calcium signal, replicate 2 (fluorescence units) = 2.05e7.
After knock-down of CG30047 (GeneID 246414), the record shows calcium entry signal, replicate 1 (fluorescence units) = 4.32e7; calcium entry signal, replicate 2 (fluorescence units) = 3.80e7; resting calcium signal, replicate 1 (fluorescence units) = 2.03e7; resting calcium signal, replicate 2 (fluorescence units) = 1.55e7.
Knock-down of Pif2 (GeneID 170876) gave: calcium entry signal, replicate 1 (fluorescence units) = 4.23e7; calcium entry signal, replicate 2 (fluorescence units) = 3.00e7; resting calcium signal, replicate 1 (fluorescence units) = 2.02e7; resting calcium signal, replicate 2 (fluorescence units) = 1.49e7.
With knock-down of mRpS17 (GeneID 37872), the screen gave calcium entry signal, replicate 1 (fluorescence units) = 3.66e7; calcium entry signal, replicate 2 (fluorescence units) = 3.36e7; resting calcium signal, replicate 1 (fluorescence units) = 1.73e7; resting calcium signal, replicate 2 (fluorescence units) = 1.56e7.
After knock-down of nclb (GeneID 36150), the record shows calcium entry signal, replicate 1 (fluorescence units) = 3.88e7; calcium entry signal, replicate 2 (fluorescence units) = 3.36e7; resting calcium signal, replicate 1 (fluorescence units) = 1.82e7; resting calcium signal, replicate 2 (fluorescence units) = 1.66e7.
Depletion of mad2 (GeneID 38656) resulted in: calcium entry signal, replicate 1 (fluorescence units) = 3.10e7; calcium entry signal, replicate 2 (fluorescence units) = 3.03e7; resting calcium signal, replicate 1 (fluorescence units) = 1.92e7; resting calcium signal, replicate 2 (fluorescence units) = 1.72e7.

3 entries from above, set out differently:
SMC6 (GeneID 42876)
- calcium entry signal, replicate 1 (fluorescence units): 4.49e7
- calcium entry signal, replicate 2 (fluorescence units): 4.50e7
- resting calcium signal, replicate 1 (fluorescence units): 2.32e7
- resting calcium signal, replicate 2 (fluorescence units): 1.97e7

Dysb (GeneID 40052)
- calcium entry signal, replicate 1 (fluorescence units): 2.49e7
- calcium entry signal, replicate 2 (fluorescence units): 4.73e7
- resting calcium signal, replicate 1 (fluorescence units): 1.44e7
- resting calcium signal, replicate 2 (fluorescence units): 2.05e7

CG30047 (GeneID 246414)
- calcium entry signal, replicate 1 (fluorescence units): 4.32e7
- calcium entry signal, replicate 2 (fluorescence units): 3.80e7
- resting calcium signal, replicate 1 (fluorescence units): 2.03e7
- resting calcium signal, replicate 2 (fluorescence units): 1.55e7

The results go on.
With knock-down of CG11425 (GeneID 40472), the record shows calcium entry signal, replicate 1 (fluorescence units) = 3.03e7; calcium entry signal, replicate 2 (fluorescence units) = 5.14e7; resting calcium signal, replicate 1 (fluorescence units) = 1.50e7; resting calcium signal, replicate 2 (fluorescence units) = 2.34e7.
Depletion of Nadk1a (GeneID 36506) #1 resulted in: calcium entry signal, replicate 1 (fluorescence units) = 5.36e7; calcium entry signal, replicate 2 (fluorescence units) = 4.72e7; resting calcium signal, replicate 1 (fluorescence units) = 2.17e7; resting calcium signal, replicate 2 (fluorescence units) = 2.01e7.
For Nadk1a (GeneID 36506) #2, the entry reads calcium entry signal, replicate 1 (fluorescence units) = 2.50e7; calcium entry signal, replicate 2 (fluorescence units) = 2.92e7; resting calcium signal, replicate 1 (fluorescence units) = 1.10e7; resting calcium signal, replicate 2 (fluorescence units) = 1.44e7.
CG32638 (GeneID 318133) showed calcium entry signal, replicate 1 (fluorescence units) = 3.06e7; calcium entry signal, replicate 2 (fluorescence units) = 3.89e7; resting calcium signal, replicate 1 (fluorescence units) = 1.51e7; resting calcium signal, replicate 2 (fluorescence units) = 1.60e7.
Knock-down of CAH1 + Adat1 came out at: calcium entry signal, replicate 1 (fluorescence units) = 5.64e7; resting calcium signal, replicate 1 (fluorescence units) = 2.48e7.
eIF4E7 (GeneID 31059) #1 showed calcium entry signal, replicate 1 (fluorescence units) = 3.99e7; calcium entry signal, replicate 2 (fluorescence units) = 5.51e7; entry to resting ratio 2; resting calcium signal, replicate 1 (fluorescence units) = 2.00e7; resting calcium signal, replicate 2 (fluorescence units) = 2.25e7.
Depletion of eIF4E7 (GeneID 31059) #2 resulted in: calcium entry signal, replicate 1 (fluorescence units) = 4.01e7; calcium entry signal, replicate 2 (fluorescence units) = 6.45e7; entry to resting ratio 2; resting calcium signal, replicate 1 (fluorescence units) = 1.99e7; resting calcium signal, replicate 2 (fluorescence units) = 2.58e7.
For CG10651 (GeneID 35303), the values are calcium entry signal, replicate 1 (fluorescence units) = 3.80e7; calcium entry signal, replicate 2 (fluorescence units) = 4.52e7; resting calcium signal, replicate 1 (fluorescence units) = 1.99e7; resting calcium signal, replicate 2 (fluorescence units) = 2.06e7.
Taf2 (GeneID 39164) gave calcium entry signal, replicate 1 (fluorescence units) = 4.01e7; calcium entry signal, replicate 2 (fluorescence units) = 2.47e7; resting calcium signal, replicate 1 (fluorescence units) = 2.75e7; resting calcium signal, replicate 2 (fluorescence units) = 1.07e7.
TotE (GeneID 35275) scored calcium entry signal, replicate 1 (fluorescence units) = 3.54e7; calcium entry signal, replicate 2 (fluorescence units) = 3.39e7; resting calcium signal, replicate 1 (fluorescence units) = 1.90e7; resting calcium signal, replicate 2 (fluorescence units) = 1.67e7.
Depletion of robl22E (GeneID 33412) gave: calcium entry signal, replicate 1 (fluorescence units) = 4.37e7; calcium entry signal, replicate 2 (fluorescence units) = 4.31e7; resting calcium signal, replicate 1 (fluorescence units) = 2.06e7; resting calcium signal, replicate 2 (fluorescence units) = 1.92e7.
